# Test results from the supplement of paper PMC3334620.
# The full ranking holds about 33,000 sequences; the median of “E-score (-0.5 to 0.5)” is about -0.0014, and the highest 2% start at about 0.25. This is one part of the list.
# Biological target: T1, Cad1 (UniProt P24813)
# T1 sequence: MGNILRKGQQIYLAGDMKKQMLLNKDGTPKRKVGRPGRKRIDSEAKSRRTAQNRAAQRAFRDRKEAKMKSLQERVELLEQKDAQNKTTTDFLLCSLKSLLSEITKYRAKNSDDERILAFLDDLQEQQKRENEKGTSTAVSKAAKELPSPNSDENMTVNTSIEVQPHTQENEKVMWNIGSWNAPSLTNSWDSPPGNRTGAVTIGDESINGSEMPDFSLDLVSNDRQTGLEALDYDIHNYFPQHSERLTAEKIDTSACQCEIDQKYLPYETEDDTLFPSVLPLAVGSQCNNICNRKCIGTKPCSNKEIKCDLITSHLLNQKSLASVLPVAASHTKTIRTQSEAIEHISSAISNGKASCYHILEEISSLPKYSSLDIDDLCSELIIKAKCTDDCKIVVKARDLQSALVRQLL
# Test: PBM E-score (8-mer binding enrichment) (E-score (-0.5 to 0.5)); higher = stronger / more preferred TF binding
# Details: protein concentration: 100 nM; construct: GST-full length
# Experimental: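 Universal 'all 10-mer' protein binding microarrays (Agilent AMADID 015681) probed with GST-tagged S. cerevisiae TFs (full-length or DBD) made by in vitro transcription/translation (PURExpress), about 100-200 nM. Bound TF was detected with fluorescent anti-GST. Each ungapped 8-mer (which stands for itself and its reverse complement) is scored by the PBM enrichment score (E-score), a modified Wilcoxon-Mann-Whitney statistic from -0.5 to +0.5, computed with the Universal PBM Analysis Suite. Scale: above 0.35 generally sequence-specific binding.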
row,Sequence,PBM E-score
1,CATAAAGA,0.0856
2,AGCACCAC,-0.0896
3,ATGTTCCC,-0.131
4,AACTGCAA,0.00596
5,CGCGCAAC,0.2
6,AATCTAAT,-0.0351
7,CGGCGGAA,0.0485
8,ATCCGTGC,0.15
9,GTGTGTTA,0.207
10,ATGGACCA,0.135
11,ATCAATAG,0.0176
12,AACCCTTC,-0.0614
13,CTCCCTCA,-0.112
14,AATTCGTC,0.274
15,CTAGAGTA,-0.0808
16,ACTATCCA,0.0296
17,AAATGGGG,-0.267
18,ATAGGACA,-0.248
19,CCACGTTA,0.0705
20,ACACAAAC,0.0811
21,GCCCTGGA,-0.11
22,CCCGATGC,-0.0619
23,AGAACCCA,-0.0477
24,ACACCAGT,-0.122

row,Sequence,PBM E-score
1,CCCAGACA,-0.108
2,AGTCCTCC,-0.244
3,CCACGAGA,-0.127
4,GAGGACCA,-0.071
5,GGCTATGA,-0.0928
6,TATTTGGA,-0.0472
7,CATAGGAA,-0.0271
8,GCACTGAC,0.00743
9,GAGGGACA,-0.165
10,ATGTTAAT,0.0743
11,TCCGTTCA,0.0746
12,AGAGTACG,-0.162
13,ATTCTAAA,0.181
14,CCAGCCGC,-0.012
15,AGATTAAA,0.233
16,CCATTGAC,-0.114
17,CGAAGGAA,0.115
18,AACGTAAT,0.261
19,AGGCTCGC,-0.00907
20,ATCGGAGC,-0.0863
21,ATAAGGGA,-0.0969
22,AAGGCCGT,0.043
23,ATTACCTG,0.0602
24,CCGCAGCA,0.115

# Quoted at random: two records from the list.
row,Sequence,PBM E-score
5,GGCTATGA,-0.0928
17,CGAAGGAA,0.115

# The list goes on.

row,Sequence,PBM E-score
1,CTTTTAAA,-0.0671
2,ACGCTTGA,-0.0208
3,AGTGTTAC,0.134
4,AGGCGCCG,0.216
5,ACCGCATG,0.00313
6,AAGGCTTA,0.0239
7,AAATGGCA,-0.0715
8,GTAGTATA,0.17
9,CAAAGGGC,-0.061
10,ATGGGACG,-0.152
11,CATGCTCG,-0.179
12,CGTCGGGA,-0.0539
13,CTGGTCGC,-0.0586
14,ATTGGCAA,0.121
15,GTAGCGGA,0.0465
16,TAGAGGAA,-0.127
17,ATCACGCA,0.0574
18,AAAGCGCT,0.208
19,ACGCGGAT,0.0938
20,ATTTCCCG,0.209
21,CCTGTTAA,-0.0931
22,ATAGAACA,0.029
23,AAAGGTCT,-0.212
24,AGAGTGTA,-0.193

row,Sequence,PBM E-score
1,CCGTGTTA,0.0186
2,ACCTTTAG,-0.142
3,ACTAAGGC,0.0629
4,ATGTACTA,0.11
5,CGTCACTA,0.0921
6,CCAATCAG,-0.134
7,AGCGGCAG,-0.0167
8,CGGCCAAA,0.0395
9,TCACGTAA,0.0889
10,GTCGATTA,0.115
11,CTGTTAAG,-0.0803
12,ATTGTTAA,0.0122
13,CACCGCTA,-0.00231
14,AGCAAGCA,-0.152
15,GCTTGACA,-0.041
16,AACTGTGT,-0.0147
17,TCCATGAA,0.0281
18,CGAGCAAC,0.051
19,GGTTACCA,0.0282
20,GCCCCCGC,-0.376
21,ACGGCCAT,-0.207
22,GACGCTGA,0.0912

# 2 neighbouring records already listed, quoted:
row,Sequence,PBM E-score
11,CTGTTAAG,-0.0803
12,ATTGTTAA,0.0122
